# Source: patent publication US12171806B2 (priority 2021, dated 2024)
# Experiment: general procedure: Fmoc solid-phase peptide synthesis; Rink amide resin; DIC/HBt; DIC/Oxyma for lactam formation
# Details: whole synthesis, analytical HPLC/MS
substance,measurement,value
pemvidutide,final HPLC purity,>94%
